Measurements: US8026219B2 (Universitat de Girona, priority 2006, dated 2011)
One purity is given for all peptides; the source may state it once. For part of these data: HELM strings list residues between dots; [ac] is acetyl, [am] amide, other brackets name non-standard units.

What was measured:
[1] = general procedure: Fmoc solid-phase peptide synthesis; Fmoc-Rink-MBHA resin, 0.66 mmol/g; HBTU, DIAE; conditions: whole synthesis, scale of the general procedure 19.8 μmoles (30 mg resin), also 132 μmoles (200 mg resin)
[2] = general procedure: Fmoc solid-phase peptide synthesis; Fmoc-Rink-MBHA; HBTU, DIAE; conditions: whole synthesis, scale 19.8 μmoles

| Substance | crude HPLC purity [1] | crude HPLC purity [2] |
| --- | --- | --- |
| Ac-KKLFKKILKVL-NH2 | over 90% |  |
| Bn-Lys-Lys-Leu-Phe-Lys-Lys-Ile-Leu-Lys-Val-Leu-NH2 | over 90% |  |
| PEPTIDE1{K.K.L.F.K.K.I.L.K.V.L.[am]}$$$$V2.0 |  | over 90% |
